Measurements published in PubChem BioAssay AID493014 (National Center for Advancing Translational Sciences (NCATS), 2011).
The list shows a part of the results. The main result of the screen is listed elsewhere. These columns were measured beside it and carry no call. Compounds called inactive in the main read-out are mostly missing here. The note in brackets gives the kind of curve behind each potency; many fits are weak.

Assay: qHTS Assay to Find Inhibitors of Chronic Active B-Cell Receptor Signaling
Details: ABC-DLBCL IkBa-CBG/CBR reporter, luminescence ratio (green luciferase fused to IkBa over red control in TMD8 lymphoma cells), 4 h
Method in brief: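 Doxycycline induced both beetle luciferases in TMD8 lymphoma cells; IKK-driven degradation limits the IkappaBalpha-fused green signal, while red luminescence normalises for cell number and nonspecific effects. Compounds tested up to 46 uM, 4 hrs.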

[1] = measured here: CBR red luminescence, cell number
[2] = measured here: IkBa-CBG green luminescence

With `O=C(NCc1ccc(Cl)cc1)C1CCCCN1S(=O)(=O)c1ccccc1` (stereo unspecified) the AC50 [1] was 35.5 µM [falling, single point].
With `COc1cc(C2C3=C(CC(C)(C)CC3=O)N(C)C3=C2C(=O)CC(C)(C)C3)ccc1O` the AC50 [1] was 6.31 µM [falling, single point].
For `COc1ccc(C(=O)Nc2cccnc2Sc2ccc(Cl)cc2)cc1`, the AC50 [1] was 6.31 µM [falling, full curve, poor fit].
In the case of `O=C(NC(=S)Nc1cccc2c(O)cccc12)c1ccco1`, the AC50 [1] is reported as 0.282 µM [falling, full curve, poor fit].
For `CC(=O)c1ccc(-n2c(=O)[nH]c(=O)c3c(N)c(C(=O)c4ccc(Cl)cc4)sc32)cc1`, the AC50 [1] was 0.562 µM [rising, full curve].
In the case of `O=C1/C(=C/c2ccccc2)SC(=S)N1CCCC(=O)N1CCCCC1CCO` (stereo unspecified), the AC50 [1] is reported as 5.62 µM [falling, full curve].
For `CC(C)(CO)NC(=O)C(Cc1ccccc1)N1C(=O)c2ccccc2C1=O` (stereo unspecified), the AC50 [1] was 10 µM [rising, partial curve, poor fit].
In the case of `Cc1occc1C(=O)NNC(=O)c1nn(C)c(=O)c2ccccc12`, the AC50 [1] is reported as 11.2 µM [falling, partial curve, poor fit].
For `Cc1cc(-c2ccc(/C=N/n3cnnc3)o2)ccc1Cl`, the AC50 [1] was 8.2 µM [rising, partial curve, poor fit].
With `COc1ccc(C2C(C(=O)N3CCN(c4ccccn4)CC3)CCC(=O)N2c2ccc(OC)cc2)cc1` (stereo unspecified) the AC50 [1] was 35.5 µM [falling, single point].
In the case of `COc1cc(OC)cc(C(=O)Nc2ccc(C(=O)c3ccncc3)cc2)c1`, the AC50 [1] is reported as 6.31 µM [falling, single point].
With `CC1CCN(c2nnc(-c3cccs3)c3ccccc23)CC1` the AC50 [1] was 7.31 µM [rising, partial curve, poor fit].
With `CC1CCC(n2c(=S)[nH]c3ccccc3c2=O)CC1` (stereo unspecified) the AC50 [1] was 15.8 µM [rising, partial curve, poor fit] and the AC50 [2] was 11.2 µM [falling, partial curve].
For `CCOc1ccc(NC(=O)Cc2ccccc2)cc1`, the AC50 [1] was 0.92 µM [rising, full curve, poor fit].
In the case of `CCN(CC)c1ccc(C=Nc2ccc(N(C)C)cc2)c(O)c1`, the AC50 [1] is reported as 11.6 µM [falling, partial curve, poor fit].
In the case of `O=C(C1=C[C@@H](c2ccc(C(F)(F)F)cc2)C[C@@H](OCc2ccc(CO)cc2)O1)N1CCN(Cc2ccccc2)CC1`, the AC50 [1] is reported as 35.5 µM [falling, single point].
With `O=C(/C=C/c1ccccc1Cl)NCCc1ccc(F)cc1` the AC50 [1] was 29.1 µM [falling, single point].
For `Cc1ccc(NC(=O)c2ccc(Nc3c([N+](=O)[O-])cc([N+](=O)[O-])cc3[N+](=O)[O-])cc2)cc1`, the AC50 [1] was 9.2 µM [falling, partial curve] and the AC50 [2] was 10.3 µM [rising, partial curve, poor fit].
For `C=CCN1C(=O)/C(=N/n2cnnc2)c2ccccc21`, the AC50 [1] was 35.5 µM [rising, single point].
For `Cc1ccc(N(Cc2ccc(C(=O)NN=C3CCN(C)CC3)cc2)S(C)(=O)=O)cc1C`, the AC50 [1] was 16.4 µM [falling, partial curve, poor fit].
In the case of `Cc1c(/C=C/C(=O)c2ccc(C(C)C)cc2)cnn1C`, the AC50 [1] is reported as 0.316 µM [rising, full curve, poor fit].
In the case of `CC(=O)Nc1ccc(-n2c(C)nc(=O)c(-c3ccccc3)c2C)cc1`, the AC50 [1] is reported as 1.64 µM [rising, partial curve, poor fit].
In the case of `O=C(c1ccc(Cl)c(Cl)c1)c1cc(-c2ccccn2)c(N2CCOCC2)s1`, the AC50 [1] is reported as 0.794 µM [falling, full curve].
For `COc1ccc(OCC2c3cc(OC)c(OC)cc3CCN2C(=O)c2c(F)cccc2F)cc1` (stereo unspecified), the AC50 [1] was 0.708 µM [rising, partial curve, poor fit].
For `CCOc1cc(C2C(C#N)=C(N)Oc3n[nH]c(-c4ccccc4)c32)ccc1O` (stereo unspecified), the AC50 [1] was 12.6 µM [falling, partial curve].
In the case of `O=C(CCc1nc2ccccc2s1)OCC(=O)c1ccc[nH]1`, the AC50 [1] is reported as 11.2 µM [rising, partial curve, poor fit].
In the case of `COc1ccc(-c2c(-c3ccc(O)cc3O)n[nH]c2C(F)(F)F)cc1`, the AC50 [1] is reported as 12.6 µM [falling, partial curve, poor fit].
For `CCOC(=O)C1CCN(CCC(=O)Nc2cccc(Cl)c2)CC1`, the AC50 [1] was 6.31 µM [falling, partial curve, poor fit].
With `Cc1c(C(=O)Nc2ccc(S(=O)(=O)N(C)C3CCN(C)CC3)cc2)oc2ccccc12` the AC50 [1] was 25.9 µM [falling, single point].
In the case of `CN(C)c1cc(-c2ccc([N+](=O)[O-])cc2)oc(=O)c1Cl`, the AC50 [1] is reported as 3.55 µM [falling, single point].
With `COc1cccc(CN2c3ccc(Br)cc3C(=O)CS2(=O)=O)c1` the AC50 [2] was 8.2 µM [falling, partial curve, poor fit].
For `C=CCn1c(=O)c2ccccc2n2c(SCC(=O)Nc3cc(C)on3)nnc12`, the AC50 [1] was 23.1 µM [rising, single point].
In the case of `N/C(=N\OC(=O)c1ccccc1F)c1cccc([N+](=O)[O-])c1`, the AC50 [1] is reported as 0.562 µM [rising, full curve, poor fit].
In the case of `CCN1CCN(c2nc(Nc3cccc(C)c3)nc(N)c2[N+](=O)[O-])CC1`, the AC50 [1] is reported as 0.517 µM [rising, full curve].
With `O=S(=O)(NCc1csc(-c2cccs2)n1)c1cccs1` the AC50 [1] was 3.98 µM [rising, partial curve, poor fit].
For `CC(C)OCCCNC(=S)Nc1ccc(S(N)(=O)=O)cc1`, the AC50 [1] was 1.84 µM [falling, partial curve, poor fit].
For `O=C(O)CCC(=O)c1ccc2c(c1)CCCC2`, the AC50 [1] was 11.2 µM [falling, partial curve].
For `Cc1ccccc1OCc1nc2ccccc2c(=O)n1/N=C/c1cn[nH]c1-c1ccc(Br)cc1`, the AC50 [1] was 6.51 µM [rising, full curve].
For `OCc1nc2nc(Cl)c(Cl)nc2[nH]1`, the AC50 [1] was 10 µM [falling, partial curve].
